Measurements reported in PubChem BioAssay AID1508597 (Cure First, 2020)
Assay: 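Genes whose silencing sensitises or protects ovarian cancer cells against rucaparib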 (primary screen). Cell system: human ovarian carcinoma lines grown from tumours: OCI-P5x (papillary serous) and OCI-C5x (clear cell). Reagents: siRNA pool against human genes, 1.25 pmol siRNA per well. Duration: 72 h or 96 h, depending on the cell culture. Treatment: rucaparib 20 µM (about IC30) or vehicle, present until read-out. Measurement: 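Luminescent ATP-based viability assay read 72 or 96 h after transfection, depending on culture, given as normalised percent viability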. Scale: viability, normalised: higher = more viable cells remaining. Rule for the call: 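a well counts as a hit if its normalised viability is under 80 percent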. Calls: active = viability under 80%; inactive = viability 80% or more.
This is a random part of about 2,100 reagents tested. 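Calls flag viability under 80% in either arm, not effects specific to rucaparib; the reference for percent is not stated.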 Entries without a mark were called inactive. A reagent listed more than once was tested more than once; the source does not tell the runs apart. Not stated in the record: the 100% reference.

no.	Target gene	rucaparib or vehicle	cell line	technical replicate	viability, normalised (%)
1	WEE1	Rucaparib	OCI-C5x (clear cell)	1	23.5 (active)
2	WEE1	Rucaparib	OCI-C5x (clear cell)	1	35.1 (active)
3	WEE1	Rucaparib	OCI-C5x (clear cell)	2	24.6 (active)
4	WEE1	Rucaparib	OCI-C5x (clear cell)	2	40.6 (active)
5	WEE1	Rucaparib	OCI-C5x (clear cell)	3	26.8 (active)
6	WEE1	Rucaparib	OCI-C5x (clear cell)	3	16.6 (active)
7	WEE1	Rucaparib	OCI-P5x (serous)	1	30.4 (active)
8	WEE1	Rucaparib	OCI-P5x (serous)	1	72 (active)
9	WEE1	Rucaparib	OCI-P5x (serous)	2	29.4 (active)
10	WEE1	Rucaparib	OCI-P5x (serous)	2	71.5 (active)
11	WEE1	Rucaparib	OCI-P5x (serous)	3	30.8 (active)
12	WEE1	Rucaparib	OCI-P5x (serous)	3	51.7 (active)
13	WEE1	Vehicle	OCI-C5x (clear cell)	1	16.5 (active)
14	WEE1	Vehicle	OCI-C5x (clear cell)	1	19.8 (active)
15	WEE1	Vehicle	OCI-C5x (clear cell)	2	17.4 (active)
16	WEE1	Vehicle	OCI-C5x (clear cell)	2	34.2 (active)
17	WEE1	Vehicle	OCI-C5x (clear cell)	3	26.6 (active)
18	WEE1	Vehicle	OCI-C5x (clear cell)	3	15.5 (active)
19	WEE1	Vehicle	OCI-P5x (serous)	1	38.2 (active)
20	WEE1	Vehicle	OCI-P5x (serous)	1	23.1 (active)
21	WEE1	Vehicle	OCI-P5x (serous)	2	33.1 (active)
22	WEE1	Vehicle	OCI-P5x (serous)	2	22.1 (active)
23	WEE1	Vehicle	OCI-P5x (serous)	3	39.9 (active)
24	WEE1	Vehicle	OCI-P5x (serous)	3	25.6 (active)
